In this assay the target is T1, V5-TurboID fused to the lysosomal transmembrane protein TMEM192 (UniProt Q8IY95).
T1 sequence: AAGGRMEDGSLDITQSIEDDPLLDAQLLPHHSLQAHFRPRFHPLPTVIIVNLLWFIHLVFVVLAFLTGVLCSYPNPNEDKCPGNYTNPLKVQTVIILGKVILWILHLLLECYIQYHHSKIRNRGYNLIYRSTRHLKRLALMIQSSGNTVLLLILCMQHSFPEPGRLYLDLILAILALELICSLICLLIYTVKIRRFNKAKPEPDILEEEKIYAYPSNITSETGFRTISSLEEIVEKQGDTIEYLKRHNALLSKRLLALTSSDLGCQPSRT
Description: co-IP.

No constants are given. Whether binding was seen depends on the method and setting. Binding seen in cells or lysates may run through a third protein. Where a sequence is shown, tags or fusion partners need not be part of it.

B1: Pleckstrin Homology and RhoGEF Domain Containing G3 (protein, UniProt A1L390 1-1219)
chain: MPVSTSLHQDGSQERPVSLTSTTSSSGSSCDSRSAMEEPSSSEAPAKNGAGSLRSRHLPNSNNNSSSWLNVKGPLSPFNSRAAAGPAHHKLSYLGRVVREIVETERMYVQDLRSIVEDYLLKIIDTPGLLKPEQVSALFGNIENIYALNSQLLRDLDSCNSDPVAVASCFVERSQEFDIYTQYCNNYPNSVAALTECMRDKQQAKFFRDRQELLQHSLPLGSYLLKPVQRILKYHLLLQEIAKHFDEEEDGFEVVEDAIDTMTCVAWYINDMKRRHEHAVRLQEIQSLLINWKGPDLTTYGELVLEGTFRVHRVRNERTFFLFDKTLLITKKRGDHFVYKGNIPCSSLMLIESTRDSLCFTVTHYKHSKQQYSIQAKTVEEKRNWTHHIKRLILENHHATIPQKAKEAILEMDSYYPNRYRCSPERLKKAWSSQDEVSTNVRQGRRQSEPTKHLLRQLNEKARAAGMKGKGRRESESSRSSRRPSGRSPTSTEKRMSFESISSLPEVEPDPEAGSEQEVFSAVEGPSAEETPSDTESPEVLETQLDAHQGLLGMDPPGDMVDFVAAESTEDLKALSSEEEEEMGGAAQEPESLLPPSVLDQASVIAERFVSSFSRRSSVAQEDSKSSGFGSPRLVSRSSSVLSLEGSEKGLARHGSATDSLSCQLSPEVDISVGVATEDSPSVNGMEPPSPGCPVEPDRSSCKKKESALSTRDRLLLDKIKSYYENAEHHDAGFSVRRRESLSYIPKGLVRNSISRFNSLPRPDPEPVPPVGSKRQVGSRPTSWALFELPGPSQAVKGDPPPISDAEFRPSSEIVKIWEGMESSGGSPGKGPGQGQANGFDLHEPLFILEEHELGAITEESATASPESSSPTEGRSPAHLARELKELVKELSSSTQGELVAPLHPRIVQLSHVMDSHVSERVKNKVYQLARQYSLRIKSNKPVMARPPLQWEKVAPERDGKSPTVPCLQEEAGEPLGGKGKRKPVLSLFDYEQLMAQEHSPPKPSSAGEMSPQRFFFNPSAVSQRTTSPGGRPSARSPLSPTETFSWPDVRELCSKYASRDEARRAGGGRPRGPPVNRSHSVPENMVEPPLSGRVGRCRSLSTKRGRGGGEAAQSPGPLPQSKPDGGETLYVTADLTLEDNRRVIVMEKGPLPSPTAGLEESSGQGPSSPVALLGQVQDFQQSAECQPKEEGSRDPADPSQQGRVRNLREKFQALNSVG
Consider B1, for which the binding entry is listed as “no binding”.

The values above are taken from article doi:10.1101/2023.02.01.526449.
